The experiment concerns the target LRP6.E1-E4 protein (Homo sapiens (Human)) (UniProt O75581). The experiment can be described thus: biolayer interferometry, biotinylated LRP6 E1-E4 on streptavidin biosensors; Wnt9b at 200 nM; association then dissociation phase.

Sequences of proteins named here, by UniProt entry; tags and fusion partners are left off. A change or cut given only in a name is not applied to a line headed by its entry.
UniProt O75581: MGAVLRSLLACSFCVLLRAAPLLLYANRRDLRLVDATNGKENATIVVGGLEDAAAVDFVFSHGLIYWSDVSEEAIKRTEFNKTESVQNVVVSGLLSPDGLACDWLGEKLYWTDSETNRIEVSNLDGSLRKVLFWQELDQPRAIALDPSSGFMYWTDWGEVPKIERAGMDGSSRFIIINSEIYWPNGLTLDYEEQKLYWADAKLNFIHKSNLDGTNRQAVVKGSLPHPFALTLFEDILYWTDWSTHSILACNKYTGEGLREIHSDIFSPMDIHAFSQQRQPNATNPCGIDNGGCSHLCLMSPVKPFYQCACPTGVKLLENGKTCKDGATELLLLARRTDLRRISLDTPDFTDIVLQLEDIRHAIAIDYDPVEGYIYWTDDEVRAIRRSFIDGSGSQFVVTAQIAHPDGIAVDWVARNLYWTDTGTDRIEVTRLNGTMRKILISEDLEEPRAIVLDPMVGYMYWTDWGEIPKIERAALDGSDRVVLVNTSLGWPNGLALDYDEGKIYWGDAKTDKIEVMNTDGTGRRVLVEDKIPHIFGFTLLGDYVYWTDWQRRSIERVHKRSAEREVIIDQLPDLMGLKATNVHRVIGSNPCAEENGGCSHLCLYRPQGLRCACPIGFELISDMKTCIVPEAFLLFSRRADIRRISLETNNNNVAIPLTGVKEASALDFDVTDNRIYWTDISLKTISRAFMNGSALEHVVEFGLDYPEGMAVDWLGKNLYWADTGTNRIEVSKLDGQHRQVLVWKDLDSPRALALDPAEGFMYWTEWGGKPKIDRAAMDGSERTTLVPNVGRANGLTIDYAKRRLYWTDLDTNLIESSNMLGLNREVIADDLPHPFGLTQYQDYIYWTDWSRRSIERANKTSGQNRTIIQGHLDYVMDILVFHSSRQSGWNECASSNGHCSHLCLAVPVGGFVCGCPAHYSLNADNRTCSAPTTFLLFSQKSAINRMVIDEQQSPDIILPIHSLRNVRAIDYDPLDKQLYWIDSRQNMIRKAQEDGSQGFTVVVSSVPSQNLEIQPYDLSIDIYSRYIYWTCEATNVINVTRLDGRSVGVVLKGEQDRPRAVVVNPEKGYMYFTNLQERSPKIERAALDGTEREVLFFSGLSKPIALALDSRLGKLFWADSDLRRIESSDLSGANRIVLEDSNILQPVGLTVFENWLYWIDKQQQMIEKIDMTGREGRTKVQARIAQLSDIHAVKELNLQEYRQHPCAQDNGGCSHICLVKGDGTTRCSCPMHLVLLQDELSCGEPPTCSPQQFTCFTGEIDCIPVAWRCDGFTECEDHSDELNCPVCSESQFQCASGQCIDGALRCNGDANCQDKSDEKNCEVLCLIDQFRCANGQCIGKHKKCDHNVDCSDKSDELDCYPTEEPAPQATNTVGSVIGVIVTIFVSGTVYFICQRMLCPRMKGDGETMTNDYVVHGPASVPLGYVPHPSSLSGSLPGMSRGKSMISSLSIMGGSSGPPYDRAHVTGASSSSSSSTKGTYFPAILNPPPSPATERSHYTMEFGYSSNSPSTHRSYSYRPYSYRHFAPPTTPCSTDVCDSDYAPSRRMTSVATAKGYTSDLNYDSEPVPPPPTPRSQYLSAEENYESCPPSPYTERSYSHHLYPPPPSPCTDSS

Results are given in words; binding and its absence hold for the method and conditions named. Some entries that bind do so weakly or less than the wild type.

B1: Wnt9b (ligand, mouse, UniProt O35468 24-359, looked up)
chain: AAYFGLTGREVLTPFPGLGTAAAPAQAGAHLKQCDLLKLSRRQKQLCRREPGLAETLRDAAHLGLLECQFQFRQERWNCSLEGRTGLLQRGFKETAFLYAVSAAALTHALARACSAGRMERCTCDDSPGLESRQAWQWGVCGDNLKYSTKFLSNFLGPKRGSKDLRARADAHNTHVGIKAVKSGLRTTCKCHGVSGSCAVRTCWKQLSPFRETGQVLKLRYDTAVKVSSATNEALGRLELWAPAKPGGPAKGLAPRPGDLVYMEDSPSFCRPSKYSPGTAGRVCSRDSSCSSLCCGRGYDTQSRMVVFSCHCQVQWCCYVECQQCAQQELVYTCKR
B1: the binding result was “binds”.

For the origin of these results see US20110256127A1.
